This is an account of results in paper PMC10043402.

Chains of the proteins cited; added tags and fusions are not shown.
UniProt P37231: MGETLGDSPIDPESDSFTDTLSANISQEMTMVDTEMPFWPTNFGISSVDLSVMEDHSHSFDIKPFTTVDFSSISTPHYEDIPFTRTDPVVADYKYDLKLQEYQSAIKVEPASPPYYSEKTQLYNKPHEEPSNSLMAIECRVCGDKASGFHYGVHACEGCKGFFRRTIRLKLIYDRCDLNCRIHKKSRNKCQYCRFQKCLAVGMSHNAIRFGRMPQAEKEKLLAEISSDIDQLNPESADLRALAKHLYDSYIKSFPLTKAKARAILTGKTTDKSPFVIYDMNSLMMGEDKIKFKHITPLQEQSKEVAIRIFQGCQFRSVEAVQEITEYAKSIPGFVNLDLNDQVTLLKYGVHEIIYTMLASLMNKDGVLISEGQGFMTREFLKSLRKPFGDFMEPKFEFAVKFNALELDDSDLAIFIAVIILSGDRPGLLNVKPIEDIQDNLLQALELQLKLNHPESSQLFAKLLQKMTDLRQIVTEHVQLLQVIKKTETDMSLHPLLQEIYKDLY
UniProt Q9BYV6: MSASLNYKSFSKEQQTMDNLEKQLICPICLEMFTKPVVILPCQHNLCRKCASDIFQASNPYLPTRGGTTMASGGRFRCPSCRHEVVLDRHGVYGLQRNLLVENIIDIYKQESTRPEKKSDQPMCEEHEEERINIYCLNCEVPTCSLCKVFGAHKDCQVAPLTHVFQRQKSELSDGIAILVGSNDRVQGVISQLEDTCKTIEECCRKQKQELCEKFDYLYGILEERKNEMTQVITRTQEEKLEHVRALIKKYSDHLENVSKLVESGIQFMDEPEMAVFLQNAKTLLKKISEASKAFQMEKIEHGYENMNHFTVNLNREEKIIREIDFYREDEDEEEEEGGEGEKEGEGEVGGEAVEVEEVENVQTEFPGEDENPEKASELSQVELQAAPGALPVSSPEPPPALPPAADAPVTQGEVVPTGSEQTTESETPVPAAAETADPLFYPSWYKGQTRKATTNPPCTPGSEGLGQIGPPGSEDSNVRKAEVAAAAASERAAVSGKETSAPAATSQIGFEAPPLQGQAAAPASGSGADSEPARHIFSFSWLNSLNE

Results are given in words; binding and its absence hold for the method and conditions named. In cells and extracts the contact can be indirect. Some binding calls cover weakened binding; strength is not graded here.

In this assay the target is peroxisome proliferator activated receptor γ (UniProt P37231). The assay is described as follows: co-IP; HEK 293 T cells transfected with the indicated plasmids, exposed to DMSO or luteolin (10 μM); lysed in pre-cooled IP buffer, specified antibodies and protein G Bestarose 4FF beads for 4 h, western blot; bait not stated. On the technique in general: In western blotting, separated proteins are transferred to a membrane and probed.

Regarding “tripartite motif containing 55 (from UniProt Q9BYV6 1-548) (enzyme)”, the binding entry is recorded as “binds”.
